PubChem BioAssay AID1671195 – Yale University – 2021

Test: 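Regulators of LDL receptor activity judged by labelled LDL uptake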 (primary screen)
Cell system: human Huh7 hepatoma cells
Knock-down reagent: siRNA pool against human genes, 18 nM
Duration: about 2 to 2.5 days of knockdown, then 8 h LDL uptake
Conditions: DiI-labelled LDL at 30 µg/ml for 8 h, in lipoprotein-deficient serum medium
Measured: 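Per-cell DiI-LDL intensity by automated imaging; well means scaled to the plate median and given as a robust z-score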
Reading the numbers: robust z-score: higher = more LDL uptake after knockdown
Rule for the call: 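Active when two or more replicates show a robust z-score above 2 or below -2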
This is one part, drawn at random, of about 22,000 deposited reagents. About 1,510 of all reagents (6.9%) count as active. 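Active includes knockdowns raising or lowering LDL uptake; positive z-scores mean more uptake, negative mean less.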 Unmarked entries are inactive. Reagents against one gene are numbered here. Reagent sequences are not shown.

| target | reagent | robust z-score, replicate 1 | robust z-score, replicate 2 | robust z-score, replicate 3 |
| --- | --- | --- | --- | --- |
| ZNF568 (GeneID 374900) | 1 | 0.703 | 0.319 | 0.741 |
| ARR3 (GeneID 407) | 1 | -0.434 | -0.0464 | -0.419 |
| NPFFR1 (GeneID 64106) | 1 | -1.35 | -1.28 | -1.36 |
| LRRIQ1 (GeneID 84125) | 1 | -0.00695 | -0.192 | 0.195 |
| LOC439987 (retired record) (GeneID 439987) | 1 | 0.0555 | 0.24 | -0.594 |
| CHST8 (GeneID 64377) | 1 | -1.29 | -1.06 | -1.57 |
| FFAR3 (GeneID 2865) | 1 | 0.0235 | 0.505 | 0.205 |
| STXBP3 (GeneID 6814) | 1 | -0.962 | 0.906 | 2.14 |
| DNAH7 (GeneID 56171) | 1 | -1.5 | -1.34 | -0.509 |
| FITM2 (GeneID 128486) | 1 | 0.951 (active) | 3.5 | 2.12 |
| RAB1B (GeneID 81876) | 1 | -0.19 | -1.56 | -1.36 |
| FAM220A (GeneID 84792) | 1 | 0.177 | 0.853 | 0.126 |
| MRPS34 (GeneID 65993) | 1 | -0.728 | -0.52 | -0.776 |
| ADGRA3 (GeneID 166647) | 1 | -0.505 | 0.88 | 0.155 |
| DCTN4 (GeneID 51164) | 1 | -1.53 | -0.174 | -2.43 |
| LOC389242 (retired record) (GeneID 389242) | 1 | -1.11 | -1.53 | -1.45 |
| FAR1 (GeneID 84188) | 1 | 0.142 | 0.341 | -0.0569 |
| LOC389275 (retired record) (GeneID 389275) | 1 | -0.696 | -0.427 | -0.54 |

The list goes on; the last 5 above are carried over.
| target | reagent | robust z-score, replicate 1 | robust z-score, replicate 2 | robust z-score, replicate 3 |
| --- | --- | --- | --- | --- |
| ADGRA3 (GeneID 166647) | 1 | -0.505 | 0.88 | 0.155 |
| DCTN4 (GeneID 51164) | 1 | -1.53 | -0.174 | -2.43 |
| LOC389242 (retired record) (GeneID 389242) | 1 | -1.11 | -1.53 | -1.45 |
| FAR1 (GeneID 84188) | 1 | 0.142 | 0.341 | -0.0569 |
| LOC389275 (retired record) (GeneID 389275) | 1 | -0.696 | -0.427 | -0.54 |
| GPATCH11 (GeneID 253635) | 1 | -0.171 | -0.0916 | -0.311 |
| MAD2L2 (GeneID 10459) | 1 | -1.47 | -0.983 | -2.26 |
| SMARCE1 (GeneID 6605) | 1 | 0.629 | 1.36 | 1.48 |
| SLC35C1 (GeneID 55343) | 1 | 0.268 | -1.83 | -0.904 |
| HES7 (GeneID 84667) | 1 | -1.19 | -1.81 | -1.5 |
| LOC400010 (retired record) (GeneID 400010) | 1 | 0.615 | 0.158 | -0.0864 |
| ZNF417 (GeneID 147687) | 1 | -1.05 | -0.77 | -0.716 |
| WNK3 (GeneID 65267) | 1 | -1.02 | -0.858 | -0.656 |
| WDFY2 (GeneID 115825) | 1 | -0.752 | -0.169 | -0.628 |
| CYP20A1 (GeneID 57404) | 1 | -1.79 (active) | -2.17 | -2.06 |
| SCEL (GeneID 8796) | 1 | -1.43 | -1.23 | -1.84 |
| ABHD17A (GeneID 81926) | 1 | 0.0108 | -0.386 | -0.782 |
| SRGAP2 (GeneID 23380) | 1 | 1.35 | 1.05 | 1.11 |
| SRGAP2 (GeneID 23380) | 2 | -0.8 | -0.567 | -0.57 |
| HDAC2 (GeneID 3066) | 1 | -0.975 | -0.655 | -0.996 |
| NR1H2 (GeneID 7376) | 1 | -0.71 | 0.552 | -0.245 |
| CENPW (GeneID 387103) | 1 | -0.99 | -0.636 | -0.483 |
| SNX8 (GeneID 29886) | 1 | -1.26 | -0.431 | -0.306 |
| PDE3B (GeneID 5140) | 1 | -0.719 | 0.422 | -0.884 |
| DEFB110 (GeneID 245913) | 1 | -0.539 | -0.292 | -0.152 |
| DEFB110 (GeneID 245913) | 2 | -0.913 | -0.932 | -0.762 |
| THRA (GeneID 7067) | 1 | -0.368 | -1.76 | -1.1 |
| MARCHF10 (GeneID 162333) | 1 | -0.2 | -1.43 | -1.38 |
| NDUFA2 (GeneID 4695) | 1 | 1.8 | 0.772 | 0.26 |
| SSUH2 (GeneID 51066) | 1 | 2.55 | 1.66 | -1.25 |
| MRPS16 (GeneID 51021) | 1 | 0.0176 | -0.432 | -2.73 |
| CST5 (GeneID 1473) | 1 | -1.65 | -1.97 | -1.75 |
| C5AR2 (GeneID 27202) | 1 | 0.778 (active) | 4.08 | 3.29 |
